Data: EP4538294A1
These are yes or no findings as the source states them, for the method shown. Some results given as binding are weak or reduced against the parent protein; the word gives no strength.

The chains behind the UniProt entries cited, without tags or fusion partners. Where a name states a change or a piece, a line headed by the entry shows the natural chain unless it says otherwise. Residues count along the entry.
UniProt Q02223: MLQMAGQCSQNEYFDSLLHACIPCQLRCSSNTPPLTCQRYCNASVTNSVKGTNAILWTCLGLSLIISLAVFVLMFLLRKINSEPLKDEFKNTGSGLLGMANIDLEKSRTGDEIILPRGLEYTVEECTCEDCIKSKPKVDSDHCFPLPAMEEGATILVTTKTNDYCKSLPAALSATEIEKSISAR
human BCMA-his protein: residues 1-54 of Q02223
UniProt Q9NZD1: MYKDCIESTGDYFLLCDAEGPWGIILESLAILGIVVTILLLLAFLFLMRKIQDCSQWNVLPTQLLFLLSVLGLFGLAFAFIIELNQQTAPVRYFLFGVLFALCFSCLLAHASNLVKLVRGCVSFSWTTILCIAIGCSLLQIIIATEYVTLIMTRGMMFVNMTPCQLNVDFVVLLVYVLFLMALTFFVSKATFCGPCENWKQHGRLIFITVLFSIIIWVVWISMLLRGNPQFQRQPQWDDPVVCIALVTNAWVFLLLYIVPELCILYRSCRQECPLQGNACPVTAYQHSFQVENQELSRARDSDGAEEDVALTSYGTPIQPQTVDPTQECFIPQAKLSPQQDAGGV
UniProt P07766, residues 23-126: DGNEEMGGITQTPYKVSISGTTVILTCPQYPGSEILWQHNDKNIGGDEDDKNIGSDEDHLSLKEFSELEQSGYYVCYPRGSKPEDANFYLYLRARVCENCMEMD
UniProt P04234: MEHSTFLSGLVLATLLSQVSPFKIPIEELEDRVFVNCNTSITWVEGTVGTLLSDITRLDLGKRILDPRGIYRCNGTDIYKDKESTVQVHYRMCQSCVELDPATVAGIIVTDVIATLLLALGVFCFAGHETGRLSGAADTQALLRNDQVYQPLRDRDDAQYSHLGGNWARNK

Assays:
[1] = molecular target: human BCMA on Flp-inCHO-human BCMA cells (human) (UniProt Q02223); experiment: FACS
[2] = molecular target: human GPRC5D on CHOK1-human GPRC5D cells (human) (UniProt Q9NZD1); experiment: FACS
[3] = molecular target: human GPRC5D on CHOK1-human GPRC5D cells (human) (UniProt Q9NZD1); experiment: cell-based ELISA
[4] = molecular target: human BCMA-his protein (human) (UniProt Q02223); experiment: ELISA, coated protein
[5] = molecular target: human CD3e-his protein (human) (UniProt P07766); experiment: ELISA, coated protein
[6] = molecular target: human CD3e/d-his protein (human) (UniProt P07766+P04234); experiment: ELISA, coated protein
[7] = molecular target: human CD3 on Jurkat cells and on activated human PBMC (human) (UniProt P07766+P04234); experiment: FACS, Jurkat cells and activated human PBMC

Measured: binding

B1: Tri-65 (trispecific antibody, V domains shown)
VHH: EVQLVESGGGLVQPGGSLRLSCAASESISSIHIMAWYRQAPGKQRELVAGIRNDGSTVYVDSVKGRFTISRDNAKNSLYLQMNSLRAEDTAVYYCNADQGFGSYSEWERRSRWGQGTTVTVSS
VH 1: EVQLVQSGAEVKKPGASVKVSCKTSGYIFTNFGITWVRQAPGQRLEWMGENYPRRINTYYNEKFKGRVTITADKSASTAYMELSSLRSEDTAVYYCSRKDIFGLSYALDYWGQGTTVTVSS
VL 1: DIQMTQSPSSLSASVGDRVTITCKASQNVGTNVAWYQHKPGKSPKALIYSASYQYSGVPSRFSGSGSGTDFTLTISSLQPEDVATYICQQYKNYPYTFGGGTKVEIK
VH 2: EVQLVESGGGVVQPGRSLRLSCAASGFTFTDYYMSWVRQAPGKGLEWVAMSRNKAKGHTIEYSSSVKGRFTISRDNSKNTLYLQMNSLRAEDTAVYYCARDTYESYDGYFDVWGQGTTVTVSS
VL 2: DIVMTQSPDSLAVSLGERATINCKSSQSLFNSRSRKNYLAWYQQKPGQTPKLLIYWASIRESGVPDRFSGSGSGTDFTLTISSLQAEDVAVYYCKQSYYLYTFGQGTKLEIK
not listed: [7]
binds: all other assays above

B2: Tri-66 (trispecific antibody, V domains shown)
VHH: EVQLVESGGGLVQPGGSLRLSCAASESISSIHIMAWYRQAPGKQRELVAGIRNDGSTVYVDSVKGRFTISRDNAKNSLYLQMNSLRAEDTAVYYCNADQGFGSYSEWERRSRWGQGTTVTVSS
VH 1: EVQLVQSGAEVKKPGASVKVSCKTSGYIFTNFGITWVRQAPGQRLEWMGENYPRRINTYYNEKFKGRVTITADKSASTAYMELSSLRSEDTAVYYCSRKDIFGLSYALDYWGQGTTVTVSS
VL 1: DIQMTQSPSSLSASVGDRVTITCKASQNVGTNVAWYQHKPGKSPKALIYSASYQYSGVPSRFSGSGSGTDFTLTISSLQPEDVATYICQQYKNYPYTFGGGTKVEIK
VH 2: EVQLVESGGGVVQPGRSLRLSCAASGFTFTDYYMSWVRQAPGKGLEWVAMSRNKAKGHTIEYSSSVKGRFTISRDNSKNTLYLQMNSLRAEDTAVYYCARDTYESYDGYFDVWGQGTTVTVSS
VL 2: DIVMTQSPDSLAVSLGERATINCKSSQSLFNSRSRKNYLAWYQQKPGQTPKLLIYWASIRESGVPDRFSGSGSGTDFTLTISSLQAEDVAVYYCKQSYYLYTFGQGTKLEIK
not listed: [7]
binds: all other assays above

B3: Tri-49 (trispecific antibody, V domains shown)
VHH: EVQLVESGGGLVQPGGSLRLSCAASESISSIHIMAWYRQAPGKQRELVAGIRNDGSTVYVDSVKGRFTISRDNAKNSLYLQMNSLRAEDTAVYYCNADQGFGSYSEWERRSRWGQGTTVTVSS
VH 1: EVQLVQSGAEVKKPGSSVKVSCKASGYTFTSYGISWVRQAPGQGLEWMGEIYPRSGNTYYNEKFKGRVTLTADKSTSTAYMELSSLRSEDTAVYYCARGRAYGRNYPMDYWGQGTTVTVSS
VL 1: EIVLTQSPATLSLSPGERATLSCRASQSIGTSIHWYQQKPGQSPRLLIKYASESISGIPARFSGSGSGTDFTLTISSLEPEDFAVYYCQQSNSWPYTFGGGTKVEIK
VH 2: EVQLVESGGGVVQPGRSLRLSCAASGFTFTDYYMSWVRQAPGKGLEWVAMSRNKAKGHTIEYSSSVKGRFTISRDNSKNTLYLQMNSLRAEDTAVYYCARDTYESYDGYFDVWGQGTTVTVSS
VL 2: DIVMTQSPDSLAVSLGERATINCKSSQSLFNSRSRKNYLAWYQQKPGQTPKLLIYWASIRESGVPDRFSGSGSGTDFTLTISSLQAEDVAVYYCKQSYYLYTFGQGTKLEIK
binds: [7]

B4: Tri-55 (trispecific antibody, V domains shown)
VHH: EVQLVESGGGLVQPGGSLRLSCAASESISSIHIMAWYRQAPGKQRELVAGIRNDGSTVYVDSVKGRFTISRDNAKNSLYLQMNSLRAEDTAVYYCNADQGFGSYSEWERRSRWGQGTTVTVSS
VH 1: EVQLVQSGAEVKKPGSSVKVSCKASGYTFTSYGISWVRQAPGQGLEWMGEIYPRSGNTYYNEKFKGRVTLTADKSTSTAYMELSSLRSEDTAVYYCARGRAYGRNYPMDYWGQGTTVTVSS
VL 1: EIVLTQSPATLSLSPGERATLSCRASQSIGTSIHWYQQKPGQSPRLLIKYASESISGIPARFSGSGSGTDFTLTISSLEPEDFAVYYCQQSNSWPYTFGGGTKVEIK
VH 2: EVQLVESGGGVVQPGRSLRLSCAASGFTFTDYYMSWVRQAPGKGLEWVAMSRNKAKGHTIEYSSSVKGRFTISRDNSKNTLYLQMNSLRAEDTAVYYCARDTYESYDGYFDVWGQGTTVTVSS
VL 2: DIVMTQSPDSLAVSLGERATINCKSSQSLFNSRSRKNYLAWYQQKPGQTPKLLIYWASIRESGVPDRFSGSGSGTDFTLTISSLQAEDVAVYYCKQSYYLYTFGQGTKLEIK
binds: [7]

B5: Tri-59 (trispecific antibody, V domains shown)
VHH: EVQLVESGGGLVQPGGSLRLSCAASESISSIHIMAWYRQAPGKQRELVAGIRNDGSTVYVDSVKGRFTISRDNAKNSLYLQMNSLRAEDTAVYYCNADQGFGSYSEWERRSRWGQGTTVTVSS
VH 1: EVQLVQSGAEVKKPGSSVKVSCKASGYTFTSYGISWVRQAPGQGLEWMGEIYPRSGNTYYNEKFKGRVTLTADKSTSTAYMELSSLRSEDTAVYYCARGRAYGRNYPMDYWGQGTTVTVSS
VL 1: EIVLTQSPATLSLSPGERATLSCRASQSIGTSIHWYQQKPGQSPRLLIKYASESISGIPARFSGSGSGTDFTLTISSLEPEDFAVYYCQQSNSWPYTFGGGTKVEIK
VH 2: EVQLVESGGGVVQPGRSLRLSCAASGFTFTDYYMSWVRQAPGKGLEWVAMSRNKAKGHTIEYSSSVKGRFTISRDNSKNTLYLQMNSLRAEDTAVYYCARDTYESYDGYFDVWGQGTTVTVSS
VL 2: DIVMTQSPDSLAVSLGERATINCKSSQSLFNSRSRKNYLAWYQQKPGQTPKLLIYWASIRESGVPDRFSGSGSGTDFTLTISSLQAEDVAVYYCKQSYYLYTFGQGTKLEIK
binds: [7]
